# According to patent publication US20210206832A1:
# No constants are given. Whether binding was seen depends on the method and setting. Some results given as binding are weak or reduced against the parent protein; the word gives no strength.
# B1: mAb4 (a mouse anti-VEGFR1 mAb mouse IgG1) (antibody, V domains shown)
# VH: EVQLVESGGDLVKPGGSLKLSCAASGFTFSDSGMSWVRQTPDKRLEWVATISSGGGYTYYSDSVEGRFTISRDNANNTLFLQMSSLKSEDTAMFYCARLGNYGGYYGMDYWGQGTSVTVSS
# VL: DIQMTQSPSSLSASLGGKVTITCKTSQDSNKYIAWYQHKPGKGPRLLIHYTSTLQPGIPSRFSGSGSGRDYSFSISNLEPEDIATYYCLQYDNLWTFGGGTKLEIKR
# Legend:
# [1] = molecular target: recombinant VEGF MiniTrap (dimer) MT5 (human); assay: affinity chromatography ligands
# [2] = molecular target: recombinant VEGF MiniTrap (dimer) MT5 (human); assay: affinity chromatography, capture and low pH elution
binder,measurement,setting,value
B1,binding,[1],binds
same,binding,[2],binds
